Reference: PubChem BioAssay (NCATS)
Some of the results follow. Shown are side measurements of this screen, not its main read-out; they come without a call. Most of these compounds were active or inconclusive in the main read-out, so they are no random draw. For some assays here: Words in brackets tell the shape of the fitted curve; partial curves, single points and poor fits give uncertain potencies.

Key:
[1] = Validation of Assay for Modulators of Lamin A Splicing (AID 1459); conditions: Lamin A splicing dual RFP/GFP fluorescence reporter, ratio
Outline: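 Splicing correction is reported by an EGFP-containing lamin A minigene in stably transfected S3 HeLa cells, while DsRed2 controls for viability and nonspecific signal. Cells are exposed to compounds for 48 hrs before the GFP over RFP ratio is taken.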

[2] = qHTS Assay for Lipid Storage Modulators (AID 1519); conditions: Drosophila S3 cells, BODIPY lipid droplet/cell ratio, laser cytometry, cells loaded with oleic acid
Outline: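 Cells seeded at 5,000 per well were treated with compounds over a concentration series and loaded with oleic acid (400 uM, as added). Lipid droplet fluorescence (488 nm excitation, 500-530 nm channel) was read by laser-scanning cytometry and normalized to 20 uM Triacsin C.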

[3] = qHTS Assay for Modulators of Human Peripheral Myelin Protein 22 (PMP22) Expression/Activity (AID 1967); conditions: Cell-based PMP22 reporter, dual-color luciferase ratio
Outline: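 Quantitative HTS in a mouse Schwann cell line expressing dual click beetle luciferases: Pmp22 promoter (green) and control EF-alpha promoter (red). After 24h treatment, corrected green/red signal ratio gave %Activity relative to untreated cells.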

[4] = qHTS Validation Assay to Find Inhibitors of Chronic Active B-Cell Receptor Signaling (AID 485345); conditions: ABC-DLBCL cells, chronic BCR signaling reporter
Outline: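 TMD8 ABC-DLBCL cells stably carrying doxycycline-inducible IkappaBalpha–green luciferase fusion plus unfused red luciferase; compounds 46 uM to 3 nM, 4 h at 37C with doxycycline. Corrected green/red luminescence ratio normalized to 10 uM MG-132 and basal cell wells; curves fitted.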

[5] = Nrf2 qHTS screen for inhibitors: Validation (AID 493153); conditions: A549 ARE-Fluc reporter, 18-24 h; AC50: CellTiter-Fluor fluorescence read, measured here: cytotoxicity CellTiter-Fluor AC50; viability change: measured here: cytotoxicity max response
Outline: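 In this counterscreened reporter format, each well gives two signals: CellTiter-Fluor fluorescence for cytotoxicity and ARE-luciferase luminescence for Nrf2 function. A549 ARE_Fluc cells in 5% FBS OPTI-MEM were exposed to compound titrations for 18-24 h.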

[6] = S16 Schwann cell PMP22 intronic element beta-lactamase assay (AID 624044); conditions: S16 rat Schwann cells, PMP22 element beta-lactamase FRET, 24 h
Outline: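 Beta-lactamase reporter under a PMP22 intronic regulatory element in stable S16 rat Schwann cells; 24 h compound exposure. 460 nm blue signal normalized between DMSO (0%) and potassium clavulanate, with 535 nm FRET tracking viability; curves classed by r2 and response.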

[7] = A High-Content qHTS Against Drug Library for the Identification of Small Molecules that Inhibit DYT1 Early Onset Primary Dystonia-Associated Cell Pathology (AID 1645839); conditions: HEK293 Flp-In EGFP-delE TorsinA, punctate imaging, 48 h; measured here: cell count cytotoxicity
Outline: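 Cells were seeded and left for 24 h, then dosed with compound alongside tetracycline induction of mutant EGFP-TorsinA. They were incubated for 48 h, fixed in 4% paraformaldehyde, permeabilized and imaged for mislocalization (%pathology) and cell count.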

[8] = qHTS assay for small molecule antagonists of peroxisome proliferator-activated receptor delta signaling (AID 588535); conditions: HEK293T PPARd-UAS-bla, beta-lactamase FRET ratio, 18 h; 460 nm channel;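 further: cells co-treated with a PPAR-delta agonist as stimulator during compound exposure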
Outline: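 Beta-lactamase reporter read-out (405 nm excitation, 460/530 nm emission) after CCF4 loading for 2 hrs at RT. HEK293T PPAR-delta-UAS-bla cells, 2% charcoal/dextran FBS, compounds for 18 hrs at 37 C. Hill fit gave IC50 and efficacy.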

[9] = qHTS assay for small molecule antagonists of peroxisome proliferator-activated receptor gamma signaling (AID 588537); conditions: HEK293 PPARg-UAS-bla, beta-lactamase ratio, antagonist mode; measured here: W460 blue channel
Outline: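 Read-out: CCF4 fluorescence (ex 405, em 460/530 nm) after 2 h at RT. Cells were HEK293 carrying a UAS-bla reporter and treated 16 h at 37 C with compound plus rosiglitazone (50 nM final). Normalized to rosiglitazone and DMSO.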

[10] = qHTS assay for small molecule antagonists of vitamin D receptor signaling (AID 588541); conditions: HEK293T VDR-UAS-bla, beta-lactamase ratio, antagonist mode; measured here: W460 blue channel (cell viability)
[11] = qHTS assay for small molecule agonists of retinoid X receptor alpha signaling (AID 588544); conditions: HEK293T RXRa-UAS-bla, beta-lactamase reporter, 18 h; 530 nm emission
[12] = qHTS assay for small molecule antagonists of retinoid X receptor alpha signaling (AID 588546); conditions: HEK293T RXRa-UAS-bla, beta-lactamase ratio, antagonist mode; measured here: W530 green channel, cytotoxicity proxy;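 further: cells stimulated with 9-cis-retinoic acid as agonist; on the % scale 0 is the no-effect control and ±100 the full control effect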
Outline: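 Beta-lactamase reporter inhibition, read as CCF4 fluorescence ratio (ex 405, em 460/530 nm) after 2 h at RT. HEK293T UAS-bla cells, 2500/well, were stimulated with 9-cis-RA at 500 or 100 nM final alongside test compound for 18 h at 37 C.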

[13] = measured here: cell count channel max response
[14] = measured here: lipid channel max response
[15] = measured here: red reporter channel AC50, EF-alpha promoter control reporter in MSC80 mouse Schwann cells
[16] = measured here: green reporter channel AC50, mouse Pmp22 promoter in mouse Schwann cells
[17] = measured here: CBG/CBR ratio read-out
[18] = measured here: CBR control luciferase (viability counter)
[19] = measured here: 460 nm blue channel
[20] = measured here: 530 nm viability channel

Q: For CC[C@H](C)C(=O)O[C@H]1CCC=C2C=C[C@H](C)[C@H](CC[C@@H]3C[C@H](O)CC(=O)O3)C21 (stereo partly specified), which AC50 ([1]; measured here: GFP channel) is on record?
A: 2.51 µM [falling, partial curve, poor fit]

Q: And the AC50 ([1]; measured here: RFP channel)?
A: 14.1 µM [falling, partial curve, poor fit]

Q: What about the max response [2, 13] of the same molecule?
A: -45.4%

Q: And the max response [2, 14]?
A: -49.4%

Q: What about the AC50 [3, 15] of the same molecule?
A: 8.49 µM [falling, full curve]

Q: Which AC50 ([1]; measured here: GFP channel) does the source give for O=C1NCN(c2ccccc2)C12CCN(CCCC(c1ccc(F)cc1)c1ccc(F)cc1)CC2 here?
A: 15.8 µM [falling, partial curve]

Q: And the AC50 ([1]; measured here: RFP channel)?
A: 12.6 µM [falling, partial curve]

Q: And the max response [2, 13]?
A: -90.3%

Q: What about the max response [2, 14] of the same molecule?
A: -105%

Q: What about the AC50 [3, 16] of the same molecule?
A: 33.8 µM [falling, full curve]

Q: And the AC50 [3, 15]?
A: 21.3 µM [falling, full curve]

Q: And the AC50 [4, 17]?
A: 18.4 µM [falling, single point]

Q: And the AC50 [4, 18]?
A: 16.4 µM [falling, single point]

Q: What about the AC50 [5] of the same molecule?
A: 11.6 µM [falling, partial curve, poor fit]

Q: And the viability change [5]?
A: -24.3%

Q: What about the AC50 [6, 19] of the same molecule?
A: 22.4 µM [falling, partial curve]

Q: And the AC50 [6, 20]?
A: 31.6 µM [falling, single point]

Q: What does the source list for CSc1ccc2c(c1)C(N1CCN(C)CC1)Cc1ccccc1S2 (stereo unspecified)?
A: AC50 ([1]; measured here: GFP channel): 35.5 µM [falling, single point]; AC50 ([1]; measured here: RFP channel): 25.1 µM [falling, single point]; AC50 [3, 16]: 21.3 µM [falling, full curve]; AC50 [3, 15]: 19 µM [falling, full curve]; AC50 [4, 17]: 20.6 µM [falling, single point]; AC50 [4, 18]: 14.6 µM [falling, partial curve]; AC50 [7]: 10 µM [falling, partial curve]

Q: With CC1=C(/C=C/C(C)=C/C=C/C(C)=C/C(=O)Nc2ccc(O)cc2)C(C)(C)CCC1 as the molecule, how does the AC50 ([1]; measured here: GFP channel) read?
A: 20 µM [rising, single point]

Q: And the AC50 ([1]; measured here: RFP channel)?
A: 20 µM [rising, single point]

Q: And the max response [2, 13]?
A: 47.1%

Q: And the max response [2, 14]?
A: 46.9%

Q: And the AC50 [3, 16]?
A: 95.3 µM [falling, single point]

Q: What about the AC50 [3, 15] of the same molecule?
A: 84.9 µM [falling, single point]

Q: What about the AC50 [4, 17] of the same molecule?
A: 13 µM [falling, partial curve]

Q: And the AC50 [5]?
A: 16.4 µM [falling, partial curve]

Q: And the viability change [5]?
A: -30.3%

Q: And the max response [8]?
A: -76.7%

Q: And the AC50 [9]?
A: 1.26 µM [falling, full curve, poor fit]

Q: And the AC50 [10]?
A: 31.6 µM [falling, partial curve, poor fit]

Q: What about the max response [11] of the same molecule?
A: -68.4%

Q: And the max response [12]?
A: -58.1%

Q: And the AC50 [6, 19]?
A: 14.1 µM [falling, partial curve]

Q: And the AC50 [6, 20]?
A: 10 µM [rising, full curve]

Q: And the AC50 [7]?
A: 1.58 µM [falling, full curve, poor fit]

Q: Which results are given for CCC1(O)CC2CN(CCc3c([nH]c4ccccc34)[C@@](C(=O)OC)(c3cc4c(cc3OC)N(C)C3[C@]45CCN4CC=C[C@@](CC)([C@@H](OC(C)=O)[C@]3(O)C(=O)OC)[C@H]45)C2)C1 (stereo partly specified)?
A: AC50 ([1]; measured here: GFP channel): 0.0708 µM [falling, full curve, poor fit]; AC50 ([1]; measured here: RFP channel): 0.0708 µM [falling, full curve, poor fit]; max response [2, 13]: -15.7%; AC50 ([2]; measured here: cell number channel AC50): 3.98 µM [falling, full curve, poor fit]; max response [2, 14]: -14.6%; AC50 [3, 16]: 60.1 µM [falling, partial curve, poor fit]; AC50 [3, 15]: 10.7 µM [falling, partial curve, poor fit]; AC50 [4, 17]: 0.82 µM [falling, full curve]; AC50 [4, 18]: 1.46 µM [rising, full curve]; AC50 [5]: 0.517 µM [falling, full curve]; viability change [5]: -32.6%

Q: What does the source list for NC(=NCc1ccc(Cl)c(Cl)c1)NC(=O)c1nc(Cl)c(N)nc1N?
A: AC50 ([1]; measured here: GFP channel): 17.8 µM [falling, single point]; AC50 ([1]; measured here: RFP channel): 12.6 µM [falling, partial curve]; AC50 [3, 16]: 19 µM [falling, full curve]; AC50 [3, 15]: 21.3 µM [falling, full curve]
